In paper PMC7713115:
Results are given in words; binding and its absence hold for the method and conditions named. Some binding calls cover weakened binding; strength is not graded here.

Amino acid sequences for entries named in this document (tags omitted).
UniProt Q99816: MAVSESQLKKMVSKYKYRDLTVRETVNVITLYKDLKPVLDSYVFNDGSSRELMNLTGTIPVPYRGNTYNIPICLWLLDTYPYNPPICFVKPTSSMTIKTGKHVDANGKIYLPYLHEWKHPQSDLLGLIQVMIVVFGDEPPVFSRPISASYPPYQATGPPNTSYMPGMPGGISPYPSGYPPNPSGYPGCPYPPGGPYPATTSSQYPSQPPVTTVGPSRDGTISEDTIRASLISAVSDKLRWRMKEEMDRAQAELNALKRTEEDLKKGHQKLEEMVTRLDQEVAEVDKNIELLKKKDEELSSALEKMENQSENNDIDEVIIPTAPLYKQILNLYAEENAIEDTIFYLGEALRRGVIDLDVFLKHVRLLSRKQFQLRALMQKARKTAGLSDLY

Target: LexA-Tsg101 (human) (UniProt Q99816)
Assay: two-hybrid; LexA-based; LexA-Tsg101 bait (LexA(1-202)+PL-TSG101) and GAD-GK-PTAP prey in strain CTY10-5d with the lexAop-lacZ reporter; beta-galactosidase filter assay

Substance: GAD-GK-PTAP (from UniProt P35557 1-465)
- binding: binds
